Measurements reported in PMC4392246, “Structure of a BAG6 (Bcl-2-associated Athanogene 6)-Ubl4a (Ubiquitin-like Protein 4a) Complex Reveals a Novel Binding Interface That Functions in Tail-anchored Protein Biogenesis*” (The Journal of Biological Chemistry, 2015).
Results are given in words; binding and its absence hold for the method and conditions named. Where a sequence is shown, tags or fusion partners need not be part of it.

By UniProt entry, the sequences of proteins in these tests, tags left out. Residues count along the entry.
UniProt O95817, residues 421-498: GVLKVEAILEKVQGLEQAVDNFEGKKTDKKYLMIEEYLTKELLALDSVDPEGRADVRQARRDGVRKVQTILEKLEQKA

Experiments:
Test in all cases: pull-down; GST-tagged BAG or BAGS domains on glutathione-Sepharose beads, washed with buffer B, mixed with purified Ubl4a proteins in vitro; immunoblot; both purified
[1] = target: GST-tagged BAG domain of BAG3 (Homo sapiens) (UniProt O95817)
[2] = target: T1, GST-tagged BAG domain of BAG2 (Homo sapiens) (UniProt O95816)
T1 sequence: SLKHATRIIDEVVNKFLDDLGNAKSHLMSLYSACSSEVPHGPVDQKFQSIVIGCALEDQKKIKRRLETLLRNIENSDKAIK

[3] = target: T2, GST-tagged full-length BAG1 (Homo sapiens) (UniProt Q99933)
T2 sequence: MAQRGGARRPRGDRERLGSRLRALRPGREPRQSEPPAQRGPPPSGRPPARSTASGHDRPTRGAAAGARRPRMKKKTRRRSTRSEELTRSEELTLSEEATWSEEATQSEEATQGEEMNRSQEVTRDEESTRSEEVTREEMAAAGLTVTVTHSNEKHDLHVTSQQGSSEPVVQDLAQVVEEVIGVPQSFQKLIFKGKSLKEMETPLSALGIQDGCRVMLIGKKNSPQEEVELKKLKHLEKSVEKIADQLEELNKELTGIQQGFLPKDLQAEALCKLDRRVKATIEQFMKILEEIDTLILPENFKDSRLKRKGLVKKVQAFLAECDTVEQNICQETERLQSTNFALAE

[4] = target: T3, GST-tagged BAG domain of BAG1 (Homo sapiens) (UniProt Q99933)
T3 sequence: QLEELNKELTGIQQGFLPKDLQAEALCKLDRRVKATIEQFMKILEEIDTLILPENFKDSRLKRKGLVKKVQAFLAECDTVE

[5] = target: T4, GST-tagged BAG domain of BAG4 (Homo sapiens) (UniProt O95429)
T4 sequence: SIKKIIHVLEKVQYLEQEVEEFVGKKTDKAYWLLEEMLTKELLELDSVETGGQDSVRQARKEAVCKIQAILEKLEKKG

Measured: binding

B1: recombinant FLAG-tagged Ubl4a (full-length) (protein, UniProt P11441 1-157)
chain: MQLTVKALQGRECSLQVPEDELVSTLKQLVSEKLNVPVRQQRLLFKGKALADGKRLSDYSIGPNSKLNLVVKPLEKVLLEEGEAQRLADSPPPQVWQLISKVLARHFSAADASRVLEQLQRDYERSLSRLTLDDIERLASRFLHPEVTETMEKGFSK
no binding: [1] | [2] | [3] | [4] | [5]
